Test results reported in PubChem BioAssay AID1487 (National Center for Advancing Translational Sciences (NCATS), 2009).
The other results are listed elsewhere or left out. Further columns of the screen follow, without active or inactive calls. Most of these compounds were active or inconclusive in the main read-out, so they are no random draw. The note in brackets gives the kind of curve behind each potency; many fits are weak.

Assay: qHTS Assay for Modulators of Lamin A Splicing
Conditions: HeLa LMNA splicing GFP/RFP minigene ratio, 48 h
Summary of the method: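 Read-out is the ratio of GFP to DsRed2 object intensity, acquired by 488 nm laser-scanning cytometry on HeLa lamin A-EGFP minigene reporter cells. Compound incubation 48 hrs at 37 °C in Opti-MEM with 2% FBS; DMSO 0.5% final.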

[1] = measured here: GFP splicing reporter channel
[2] = measured here: RFP viability control channel

Compound: CCOC(=O)C1=C(c2ccccc2)N(C)C(=O)NC1c1ccc(O)c(OC)c1 (stereo not drawn)
- AC50 [1]: 0.631 µM [falling, full curve]
- AC50 [2]: 0.631 µM [falling, full curve]

Compound: O=c1c2ccc(Cl)cc2nc(-c2cccc(C(F)(F)F)c2)n1O
- AC50 [1]: 0.224 µM [falling, full curve, poor fit]
- AC50 [2]: 3.16 µM [falling, single point]

Compound: CCOC(=O)c1sc(NC(=O)CSc2nc3c(cc2C#N)CCCCCC3)c(C#N)c1C
- AC50 [2]: 7.94 µM [rising, partial curve, poor fit]

Compound: CC(NCC(O)COc1ccc(S(=O)(=O)N2CCOCC2)cc1)c1ccccc1 (stereo not drawn)
- AC50 [1]: 3.16 µM [falling, partial curve, poor fit]

Compound: Cc1ccc(-c2csc3nc(C)n(-n4c(C)ccc4C)c(=O)c23)o1
- AC50 [1]: 5.01 µM [rising, partial curve]
- AC50 [2]: 7.94 µM [rising, partial curve]

Compound: S=C(NCc1ccco1)Nc1cc(Cl)c(Cl)cc1Cl
- AC50 [2]: 12.6 µM [rising, partial curve]

Compound: Cc1ccccc1CNC(=O)C(=O)NCC(c1ccco1)S(=O)(=O)c1cccs1 (stereo not drawn)
- AC50 [1]: 11.2 µM [falling, partial curve]
- AC50 [2]: 11.2 µM [falling, partial curve, poor fit]

Compound: COc1cc2c(cc1NC(=O)Nc1ccccc1)oc1ccccc12
- AC50 [1]: 0.0282 µM [falling, single point]

Compound: CCc1cc(C(=O)NNC(=S)NC(C)c2ccccc2)cs1 (stereo not drawn)
- AC50 [2]: 22.4 µM [rising, single point]

Compound: COc1ccc(C(=O)NCc2ccc(N3CCN(C(=O)OC(C)(C)C)CC3)cc2)cc1
- AC50 [2]: 35.5 µM [rising, single point]

Compound: O=C(Nc1nccs1)c1sc2ccccc2c1Cl
- AC50 [2]: 11.2 µM [rising, partial curve]

Compound: CC(=O)NCCOc1nc(N2CCCCC2)nc(N2CCCCC2)n1
- AC50 [2]: 0.0447 µM [falling, full curve, poor fit]

Compound: C=CCNC(=S)NNC(=O)c1ccc(OCCCC)cc1
- AC50 [2]: 31.6 µM [rising, single point]

Compound: Cn1c(SCc2nnc(-c3ccccc3Br)o2)nc2sc3c(c2c1=O)CCC3
- AC50 [1]: 12.6 µM [rising, partial curve]
- AC50 [2]: 12.6 µM [rising, partial curve]

Compound: Cn1c(=O)oc2cc(S(=O)(=O)CCC(=O)N3CCN(c4cccc(Cl)c4)CC3)ccc21
- AC50 [2]: 2.24 µM [rising, partial curve, poor fit]

Compound: O=C(/C=C/c1cccc([N+](=O)[O-])c1)OC1CCCCC1=O (stereo not drawn)
- AC50 [2]: 0.224 µM [falling, full curve, poor fit]

Compound: COc1ccc(CC(=O)N/N=C(\C)c2ccccn2)cc1
- AC50 [1]: 0.178 µM [rising, full curve, poor fit]
- AC50 [2]: 22.4 µM [rising, partial curve]

Compound: O=C(N/C(=C/c1cccc(Br)c1)c1nc(=S)[nH][nH]1)c1ccccc1
- AC50 [1]: 35.5 µM [falling, single point]
- AC50 [2]: 35.5 µM [falling, single point]

Compound: Cc1ccc(C)c(N2CCN(S(=O)(=O)c3cc(C(=O)Nc4ccc(Oc5ccccc5)cc4)ccc3F)CC2)c1
- AC50 [1]: 0.794 µM [falling, full curve, poor fit]

Compound: O=C(CCN1CCN(c2ccccc2F)CC1)c1ccc(Br)cc1
- AC50 [2]: 14.1 µM [rising, single point]

Compound: CCCn1c(C)cc(C(=O)COc2ccc(S(=O)(=O)N(CC)CC)cc2[N+](=O)[O-])c1C
- AC50 [1]: 35.5 µM [rising, single point]
- AC50 [2]: 35.5 µM [rising, single point]

Compound: CN(C(=O)C1CCN(S(=O)(=O)c2cccs2)CC1)c1ccccc1
- AC50 [2]: 12.6 µM [rising, single point]

Compound: CCCCNC(=O)CCCCCn1c(=O)[nH]c2ccccc2c1=O
- AC50 [1]: 0.00891 µM [rising, full curve, poor fit]

Compound: CCCOc1ccc(C2C(C(=O)/C=C/c3ccco3)=C(O)C(=O)N2CCN2CCOCC2)cc1OC (stereo not drawn)
- AC50 [1]: 0.0316 µM [rising, single point]

Compound: Cc1cc(C(=O)CSc2nnc(-c3ccc(F)cc3)o2)c(C)n1CC1CCCO1 (stereo not drawn)
- AC50 [1]: 10 µM [rising, partial curve]
- AC50 [2]: 12.6 µM [rising, partial curve]

Compound: COCCNC(=O)C(c1cccs1)N(C(=O)Cn1nnc2ccccc21)c1ccc2c(c1)OCO2 (stereo not drawn)
- AC50 [2]: 0.251 µM [rising, full curve]

Compound: CC/C=C\C/C=C\C/C=C\CCCCCCCC(=O)O
- AC50 [1]: 17.8 µM [rising, single point]
- AC50 [2]: 22.4 µM [rising, single point]

Compound: Nn1c(Nc2ccccc2)nc2sc3c(c2c1=O)CCC3
- AC50 [2]: 11.2 µM [rising, partial curve]

Compound: Cc1ccc(C(C)C)c(O)c1
- AC50 [1]: 0.316 µM [falling, partial curve, poor fit]
- AC50 [2]: 0.794 µM [falling, single point]

Compound: CCOC(=O)c1c(NC(=O)COC(=O)CNC(=O)c2ccco2)sc(C)c1C
- AC50 [2]: 3.98 µM [rising, partial curve]

Compound: CCC1=[N+](CC(=O)c2ccc(C)cc2)CCn2cccc21
- AC50 [1]: 22.4 µM [rising, partial curve, poor fit]
- AC50 [2]: 28.2 µM [rising, partial curve]

Compound: O=C(CN1CCSC1=NCc1ccccc1)c1ccc(Cl)cc1
- AC50 [2]: 31.6 µM [rising, single point]

Compound: CCc1ccc(/C=N/n2c(C)cc(C)c(C#N)c2=O)cc1
- AC50 [2]: 0.01 µM [rising, full curve, poor fit]

Compound: COc1ccc(-c2cn3nc(N4CCCC(C(=O)NCc5ccc(Cl)cc5)C4)sc3n2)cc1 (stereo not drawn)
- AC50 [1]: 15.8 µM [falling, partial curve, poor fit]
- AC50 [2]: 5.01 µM [falling, partial curve, poor fit]

Compound: O=C(NC1CC1)C1CCN(c2ccc(S(=O)(=O)N3CCOCC3)cc2)CC1
- AC50 [2]: 10 µM [rising, partial curve, poor fit]
